Measurements published in publication PMC11637432.
Results are given in words; binding and its absence hold for the method and conditions named. Binding seen in cells or lysates may run through a third protein. Binding can be weak; no strength is given. Where a sequence is shown, tags or fusion partners need not be part of it.

How the values were obtained:
[1] = biological target: third intracellular loop of MC1R; experiment: pull-down; purified intracellular loops and C-terminus of MC1R (GST-tagged) on Glutathione Sepharose 4B beads incubated with HEK293T lysate expressing BBS2-HA, 4 h at 4°C; GST buffer (150 mM NaCl, 1 mM MgCl2, 50 mM Hepes, 1 mM EGTA, 0.5% Triton X-100, pH 7.4); only the target purified
[2] = biological target: second intracellular loop of MC1R; experiment: as above

binding [1]: binds
binding [2]: binds
B1: BBS2-HA (protein, UniProt Q9BXC9 1-721)
chain: MLLPVFTLKLRHKISPRMVAIGRYDGTHPCLAAATQTGKVFIHNPHTRNQHVSASRVFQSPLESDVSLLSINQAVSCLTAGVLNPELGYDALLVGTQTNLLAYDVYNNSDLFYREVADGANAIVLGTLGDISSPLAIIGGNCALQGFNHEGSDLFWTVTGDNVNSLALCDFDGDGKKELLVGSEDFDIRVFKEDEIVAEMTETEIVTSLCPMYGSRFGYALSNGTVGVYDKTSRYWRIKSKNHAMSIHAFDLNSDGVNELITGWSNGKVDARSDRTGEVIFKDNFSSAIAGVVEGDYRMDGHIQLICCSVDGEIRGYLPGTAEMRGNLMDTSAEQDLIRELSQKKQNLLLELRNYEENAKAELASPLNEADGHRGIIPANTRLHTTLSVSLGNETQTAHTELRISTSNDTIIRAVLIFAEGIFTGESHVVHPSIHNLSSSICIPIVPPKDVPVDLHLKAFVGYRSSTQFHVFESTRQLPRFSMYALTSLDPASEPISYVNFTIAERAQRVVVWLGQNFLLPEDTHIQNAPFQVCFTSLRNGGHLHIKIKLSGEITINTDDIDLAGDIIQSMASFFAIEDLQVEADFPVYFEELRKVLVKVDEYHSVHQKLSADMADHSNLIRSLLVGAEDARLMRDMKTMKSRYMELYDLNRDLLNGYKIRCNNHTELLGNLKAVNQAIQRAGRLRVGKPKNQVITACRDAIRSNNINTLFKIMRVGTASS
